± gives the standard deviation of the averaged measurements. Most values lie at the floor of the assay. Slopes are relative: functional sequences can read slightly below zero.
Each substance was assayed on Saccharomyces cerevisiae PS128 hsf1 delta, HSF1(1-493) fusion (assay: growth estimate (transactivation domain function in HSF1 fusion, heat-shock survival) (a.u. (slope of normalised read count over time)); higher = stronger growth at 37°C, i.e. more transactivation activity). Conditions: library: random library.

Substance	growth estimate
RIPVILCFVGAHPQGVSQLI	< -0.25
RIQWCSTALPRAFRY	< -0.25
RIRAATKTE	< -0.25
RIREIFVTLAPHVRTCLHRR	< -0.25
RIRGNRGFRFQPENVGIN	< -0.25
RIRNLGLLGAQ	< -0.25
RIRPLS	< -0.25
RIRSTTGERRDGASPIKCVR	< -0.25
RIRVSVF	< -0.25
RIRYRADVALGLIRAVARVQ	< -0.25
RIS	< -0.25
RISACARGQSAGGGSVGIGG	< -0.25
RISLDVIAIREFDLHGVQHC	< -0.25
RISRMPGL	< -0.25
RISVRCATHIGFIFRDIRGH	< -0.25
RISVVSSFLRSRRRSLDQDA	< -0.25
RITSGRSPLWESEIDPKWDK	< -0.25
RIVATAAIPTAAEMVGSFPG	< -0.25
RIVRPSGRGILIPPGFTGRV	< -0.25
RIVTYQTGLKCVGVDEMQQT	< -0.25
RIVVVSCGQTETHL	< -0.25
RIY	< -0.25
RIYGSASGRITGTWTELTGT	< -0.25
RIYR	< -0.25
RKADDPVGPSGG	< -0.25

Substance	growth estimate
RKAMGRC	< -0.25
RKARGPLSKGCIFLGATTHL	< -0.25
RKASR	< -0.25
RKDFRKMTLKRGRGYVNIWA	< -0.25
RKDLESNGESNRMHC	< -0.25
RKFIREVFPSTGGSYRSYCD	< -0.25
RKGEF	< -0.25
RKGGSPYFVDTRRSYYTKRG	< -0.25
RKGMGPV	< -0.25
RKGPLVRRVALARSTSLRLV	< -0.25
RKGRRDFPDTTF	< -0.25
RKGTAGNGKS	< -0.25
RKGVAR	< -0.25
RKITRGWGGRRAPYSDSLPT	< -0.25
RKKQIREWLTGSTMPHAWYP	< -0.25
RKLGHNVRTG	< -0.25
RKLGYQFEPMSF	< -0.25
RKLSRTSIWSPLGSGKQLWV	< -0.25
RKLVDY	< -0.25
RKQGGLTLCILEALASLTL	< -0.25
RKQNAKSEIRTGQL	< -0.25
RKRPN	< -0.25
RKRRLKKGSGHKLGPRSKSG	< -0.25
RKRRWQVRCFLRVPATSKVN	< -0.25
RKRSF	< -0.25

Substance	growth estimate
RKRSNSRDGAGWPVAVIRPL	< -0.25
RKSCEVGATKSLHGVEPLRA	< -0.25
RKSNASQLI	< -0.25
RKSVVLMEEGEFSCGRETCT	< -0.25
RKVAPFRSSGCLGEVKRAFA	< -0.25
RKVLDRDER	< -0.25
RKVLNA	< -0.25
RKVPRYTSRNE	< -0.25
RKVWSTHGEDAAIRPGGYAH	< -0.25
RKY	0.0112
RLAG	< -0.25
RLAIPSDFRIRGWLRVVEG	< -0.25
RLAMRDNGRYLSFGLVSVTG	< -0.25
RLASSDVL	< -0.25
RLAVWVYLGTILCLCGESTR	< -0.25
RLCLTASRCNKNMSGDRGAV	< -0.25
RLCYRPNGRPPRVHHVIFSM	< -0.25
RLDTATLLSYSAIT	< -0.25
RLEDIGST	< -0.25
RLEGKHDICCSTSYIGRVAQ	< -0.25
RLEGLC	< -0.25
RLERG	< -0.25
RLERLW	< -0.25
RLEVQ	< -0.25
RLFGKYGKGNSGKIRN	< -0.25

Substance	growth estimate
RLFLIIRSE	-0.25
RLGGHRGARKCGLTTRMIRN	< -0.25
RLGIVEEVLGKLLFCYSSVV	< -0.25
RLGLAGTPFAGARQLHSSCH	< -0.25
RLGLFIPVECVGVLVGLCSA	< -0.25
RLGLVGRSI	< -0.25
RLGTNAGTWLVVLYRVTSRQ	< -0.25
RLGVD	< -0.25
RLHDGRGLAGNAKIQLQLGV	< -0.25
RLHGRGDPSYAAMGGTCVVK	< -0.25
RLHRSGDDLKWIRARPYV	< -0.25
RLHSNLRDSLKVT	< -0.25
RLINEGGP	< -0.25
RLIVMDCLRKSFTVGRVGEA	< -0.25
RLKKLGSSL	< -0.25
RLKMSFCRTRDPPR	< -0.25
RLL	< -0.25
RLLFHAEWSLA	< -0.25
RLLGASFI	< -0.25
RLLGELGSVCVKTYERDGRS	< -0.25
RLLGLQFWGFQWRKT	< -0.25
RLLGNLLP	-0.19
RLLNT	< -0.25
RLLNTDGGSSFQGYYTPSKI	< -0.25
RLLPGGSES	< -0.25

As a short view, part of the list above:
Substance	growth estimate
RLHGRGDPSYAAMGGTCVVK	< -0.25
RLHRSGDDLKWIRARPYV	< -0.25
RLHSNLRDSLKVT	< -0.25
RLINEGGP	< -0.25

Remaining list, next part.

Substance	growth estimate
RLLPIQNKRFLPNLRVPCSV	< -0.25
RLLRMMVNVGPKWSLSSDAA	< -0.25
RLMG	< -0.25
RLMSGFWRLNMLRTLDILAV	< -0.25
RLMWNAGGSEPAS	< -0.25
RLNEKLFDVD	< -0.25
RLNGVKADGAIRAEDVLGHN	< -0.25
RLNP	-0.247 ± 0.0037
RLNSISLSKSRSDGSRLVYG	< -0.25
RLNTGRTLLRLNIPGRSPSL	< -0.25
RLNVRRLRINFTSAHSPFSL	< -0.25
RLPGEKRKVYELLPN	< -0.25
RLPGIVAGDGSLQT	< -0.25
RLPGLCYEGARRGFHTARQP	< -0.25
RLPLGATIVAL	< -0.25
RLPNNDVPRWLSISGVPNCS	< -0.25
RLPRCELRIPRYQSGAHLNR	< -0.25
RLPSIMARLHGCPLHRRKCL	< -0.25
RLPYTSRSPTSSHMFRLVSE	< -0.25
RLQACYGFYSCVATGF	< -0.25
RLQIKMNILSRGGNWLHWKG	< -0.25
RLQPRYHPSLNRNPV	< -0.25
RLQRDWP	< -0.25
RLQVGRLRRRCRVYMRLRPP	< -0.25
RLRGANSAAPEQESR	< -0.25

Substance	growth estimate
RLRGMEGDTLWAP	< -0.25
RLRGRTSGFQGEFRADPQRS	< -0.25
RLRLHP	< -0.25
RLRLRKPTGRRRGLTRPSSG	< -0.25
RLRREIGGEGSVGLKSPATR	< -0.25
RLRRQDQSFVPKFVLFTTST	< -0.25
RLRSAHLSAPRDLPRSELVC	< -0.25
RLRT	< -0.25
RLRVRLHKRLARLRFG	< -0.25
RLSGERKFEAQRFAISGSGR	< -0.25
RLSGLGRLVSSLMSC	< -0.25
RLSPIVHV	< -0.25
RLSPK	< -0.25
RLSQALESL	-0.246
RLSTLRFGGEWLETYCPLCM	< -0.25
RLT	-0.2
RLTDLVCMILTVVCPWQCVP	< -0.25
RLTKGPHGY	< -0.25
RLTMPMNLDGCF	< -0.25
RLTNSSVSSESSCR	< -0.25
RLTRPVSVGGWIQRFLNRHA	< -0.25
RLVAGKACGHVLMVRLRKCH	< -0.25
RLVEYLPYSRWLYSNTQYTY	-0.237
RLVHTWRLLNSRFMLIIAVD	< -0.25
RLVKKSLTREGSTIIA	< -0.25

Substance	growth estimate
RLVQ	< -0.25
RLVTAGLGSGLHPHDTVFPL	< -0.25
RLVVVAP	< -0.25
RLWKRMSEQISWLRISSPLG	< -0.25
RLWSRGLQTRNCRVGLLGMS	< -0.25
RLWTVRLVRCG	< -0.25
RLYGGLVSYYVVHCLMYGSL	< -0.25
RLYLRPFLELRAANRVKLKR	< -0.25
RLYRTWRTAHVCLNTSWTSK	< -0.25
RLYVTSAWTYA	< -0.25
RMAEQALARMGAHH	< -0.25
RMIVYGRGWSEVESMVNAYV	< -0.25
RMKGLQSGIRESGTP	< -0.25
RMLARGRDDISTTAHIRFPA	< -0.25
RMLVKRSQRV	< -0.25
RMNANS	< -0.25
RMNTAGNSVMILSVRGQLCI	< -0.25
RMRCPLVLQSGATRRFTRSR	< -0.25
RMRKHNHYPTIPRSKG	< -0.25
RMVGRVLTRATCQIIRHAPE	< -0.25
RMVTISLRTPMPLGTTSRAI	< -0.25
RMYASPQGID	< -0.25
RMYASRDLTKRALRCQFGTC	< -0.25
RMYLNPRSILVFTCEAM	< -0.25
RNAERSTPVLDDTAEVTGQG	< -0.25

Copied from the list:
Value for RLVVVAP under growth estimate: < -0.25
Value for RLWTVRLVRCG under growth estimate: < -0.25
Value for RMNANS under growth estimate: < -0.25

Further records:

Substance	growth estimate
RNAISSCSPAPIRQHGPCWY	-0.25
RNAPS	< -0.25
RNARKLKDHVHPSHQYLVSF	< -0.25
RNEKRNVRAPVYAVPHH	< -0.25
RNFVTNRLLPFRTGIKTYDA	< -0.25
RNGAVN	< -0.25
RNGEGQYGRAHLWE	< -0.25
RNGESFKRGQGIKNPSASRG	< -0.25
RNGGDALGVVDGRQTVCL	< -0.25
RNGICFLLPR	< -0.25
RNGKLFRKCYDIVC	< -0.25
RNGNPKGWPGGLEGLRTR	< -0.25
RNGYDTRDYTIKQETSACEP	< -0.25
RNI	< -0.25
RNL	-0.248 ± 0.0039
RNLIVGYGT	< -0.25
RNLRVRGATGDVLPASVA	< -0.25
RNLYERLIMSRFRHRHLTPG	< -0.25
RNNQSVESATTHEFIKLHSS	< -0.25
RNPRVKPAFCPDRM	< -0.25
RNRVVGHCPTALEVPVLNPL	< -0.25
RNSAPRL	< -0.25
RNSFAARSQYG	< -0.25
RNSIALTARRASVTFGLILP	< -0.25

Shown with each value named: part of the list above.
RNGYDTRDYTIKQETSACEP
  growth estimate = < -0.25
RNI
  growth estimate = < -0.25
RNL
  growth estimate = -0.248 ± 0.0039
RNLIVGYGT
  growth estimate = < -0.25

Source: the supplement of paper PMC5949888
